The test relates to P388 leukemia ip, CD2F1 mice, survival T/C. In words: NCI In Vivo Anticancer Drug Screen. Data for tumor model P388 Leukemia (intraperitoneal) in CD2F1 (CDF1) mice. Particulars: T/C endpoint: median survival time, higher T/C = longer survival.
The mark [1] stands for this setting: dose: 0.15 mg/kg/injection, schedule: Q01DX009 (ip), vehicle: water.
Setting [2] is: dose: 0.3 mg/kg/injection, schedule: Q01DX009 (ip), vehicle: water.
Setting [3] is: dose: 1.2 mg/kg/injection, schedule: Q01DX009 (ip), vehicle: water.
Setting [4] is: dose: 50.0 mg/kg/injection, schedule: Q01DX005 (ip), vehicle: saline with Tween-80.
The mark [5] stands for this setting: dose: 100.0 mg/kg/injection, schedule: Q01DX005 (ip), vehicle: saline with Tween-80.
[6] abbreviates: dose: 240.0 mg/kg/injection, schedule: Q01DX005 (ip), vehicle: Klucel (hydroxypropylcellulose) (HPC).
Where [7] appears, read: dose: 240.0 mg/kg/injection, schedule: Q01DX005 (ip), vehicle: saline with Tween-80.

The list is a part of this screen's results and no random one: it gathers tests that were run many times, whatever their T/C, doses with no T/C, and many T/C values between a quarter and a half above the control. Further doses and runs are listed elsewhere. T/C gives the treated animals as a percentage of the vehicle group. Some doses have a count of surviving animals in place of a T/C: the source files T/C as zero there, which appears to mark a toxic dose or a test without result, not a measured value. Some survivor counts are full or nearly so, which does not show that the dose was tolerated: survival well below the control is almost never listed, so the zero probably covers shortened survival too. Counts of survivors are from the toxicity check (mostly the fifth day) where no day follows; animals may have died later. Schedule codes are those of the source, taken here to give the interval after Q, in days (D) or hours (H), and the number of doses after X. Some doses were run more than once; the values are given in rising order. Signs of the kind (2×) stand for listed records that agree. For survival time, the PubChem record calls one and a half times the control and up active, and a quarter to a half above the control has no call in these data; cut-offs in other NCI protocols can differ. Some T/C values carry the count of animals alive at the toxicity check (mostly the fifth day); where none is given, no animal had died by that day.

Consider `CSCS(=O)C[C@H](CO)NC(=O)/C=C/c1c(C)[nH]c(=O)[nH]c1=O` (some centres undefined), for which the T/C is, setting by setting: (dose: 0.07 mg/kg/injection, schedule: Q01DX009 (ip), vehicle: water) 139 % of control; (dose: 0.08 mg/kg/injection, schedule: Q01DX009 (ip), vehicle: water, evaluated on day 20) 149 % of control; (dose: 0.08 mg/kg/injection, schedule: Q01DX009 (ip), vehicle: water, evaluated on day 30) 102, 108, 113, 118 (2×), 122 (2×), 126, 128 (2×), 129, 130, 132, 133, 141, 153 % of control; (dose: 0.1 mg/kg/injection, schedule: Q01DX009 (ip), vehicle: water) 140 % of control; (dose: 0.15 mg/kg/injection, schedule: Q01DX009 (ip), vehicle: other) 137 % of control; under setting [1], 117, 118, 118 [5 of 6 alive], 122, 124 (2×), 128, 129 (2×), 131 [5 of 6 alive], 132 [5 of 6 alive], 135, 137 (3×), 143 (2×), 145, 147, 148, 150, 166 % of control. Further, the T/C is, setting by setting: (dose: 0.3 mg/kg/injection, schedule: Q01DX009 (ip), vehicle: other) 144 % of control; under setting [2], 100, 111, 112, 121, 131, 132, 136 [5 of 6 alive], 145, 146, 149, 149 [5 of 6 alive] (2×), 150, 155 (2×), 156 [5 of 6 alive], 157 [5 of 6 alive], 159, 161, 164 % of control; (dose: 0.6 mg/kg/injection, schedule: Q01DX009 (ip), vehicle: water, evaluated on day 25) 100 % of control [5 of 6 alive]; (dose: 0.6 mg/kg/injection, schedule: Q01DX009 (ip), vehicle: water, evaluated on day 30) 88, 92, 102, 137 [4 of 6 alive], 150 [4 of 6 alive], 154, 157 [5 of 6 alive], 165 % of control; under setting [3], 100 and 103 % of control. Moreover, the survivor count is 4 of 6 under setting [1]; 1 of 6, 5 of 6 (2×), 6 of 6 under setting [2]; 3 of 6 (dose: 0.6 mg/kg/injection, schedule: Q01DX009 (ip), vehicle: other); 0 of 6, 1 of 6 (2×), 2 of 6, 3 of 6, 4 of 6 (2×), 5 of 6, 6 of 6 (2×) (dose: 0.6 mg/kg/injection, schedule: Q01DX009 (ip), vehicle: water); 5 of 6 (dose: 0.7 mg/kg/injection, schedule: Q01DX009 (ip), vehicle: water); 6 of 6 (dose: 0.8 mg/kg/injection, schedule: Q01DX009 (ip), vehicle: water). Also, the survivor count reads like this: (dose: 0.9 mg/kg/injection, schedule: Q01DX009 (ip), vehicle: water) 2 of 6; (dose: 1.0 mg/kg/injection, schedule: Q01DX009 (ip), vehicle: water) 5 of 6; (dose: 1.2 mg/kg/injection, schedule: Q01DX009 (ip), vehicle: other) 0 of 6; under setting [3], 0 of 6 (2×), 1 of 6 (2×), 2 of 6, 3 of 6, 4 of 6 (2×), 5 of 6 (2×), 6 of 6.

As to `CC[C@@]1(O)C[C@H]2CN(CCc3c([nH]c4ccccc34)[C@@](C(=O)OC)(c3cc4c(cc3OC)N[C@H]3[C@@](O)(C(=O)OC)[C@H](OC(C)=O)[C@]5(CC)C=CCN6CC[C@]43[C@@H]65)C2)C1`, the T/C (dose: 0.5 mg/kg/injection, schedule: Q01DX001 (ip), vehicle: water) is 125 % of control; the T/C (dose: 1.0 mg/kg/injection, schedule: Q01DX001 (ip), vehicle: water) was 126 and 136 % of control; the T/C (dose: 2.0 mg/kg/injection, schedule: Q01DX001 (ip), vehicle: water) is 136 and 138 % of control; the T/C (dose: 4.0 mg/kg/injection, schedule: Q01DX001 (ip), vehicle: water) was 138 and 143 % of control. Also, the survivor count (dose: 32.0 mg/kg/injection, schedule: Q01DX001 (ip), vehicle: water) was 3 of 6.

For the molecule `COC1=C(OC)C(=O)C(OC)=C(OC)C1=O`, the survivor count reads like this: (dose: 100.0 mg/kg/injection, schedule: Q01DX009 (ip), vehicle: saline with Tween-80) 3 of 6; (dose: 200.0 mg/kg/injection, schedule: Q01DX009 (ip), vehicle: saline with Tween-80) 0 of 6.

For the molecule `Cc1cn(C2CC(N=[N+]=[N-])C(CO)O2)c(=O)[nH]c1=S` (centres undefined), the survivor count runs as follows: under setting [4], 6 of 6; under setting [5], 6 of 6; (dose: 200.0 mg/kg/injection, schedule: Q01DX005 (ip), vehicle: saline with Tween-80) 6 of 6.

Take `Cc1ccc(NCCN2CCC(C3CCN(CCNc4ccc(C)c5sc6ccccc6c(=O)c45)CC3)CC2)c2c(=O)c3ccccc3sc12`: the survivor count was 6 of 6 (dose: 25.0 mg/kg/injection, schedule: Q01DX005 (ip), vehicle: saline with Tween-80); 6 of 6 under setting [4]; 6 of 6 under setting [5].

For the molecule `C=C1C(=O)OC2CC3(C)OC(=CC3=O)/C(C)=C\C(OC(=O)C3(C)OC3C)C12` (centres undefined), the survivor count reads like this: (dose: 25.0 mg/kg/injection, schedule: Q01DX005 (ip), vehicle: distilled water + Tween-80) 2 of 6; (dose: 25.0 mg/kg/injection, schedule: Q01DX005 (ip), vehicle: water) 2 of 6; (dose: 50.0 mg/kg/injection, schedule: Q01DX005 (ip), vehicle: water) 0 of 6; (dose: 100.0 mg/kg/injection, schedule: Q01DX005 (ip), vehicle: water) 0 of 6.

Regarding `NC(=O)N/N=C1/CCCCCC1(c1ccccc1)c1ccccc1`, the survivor count under setting [6] was 1 of 6.

In the case of `CC1=C(C(=O)Nc2ccccc2)C(/C=C/c2ccccc2)C(C(=O)Nc2ccccc2)=C(C)N1`, the survivor count by setting is: (dose: 100.0 mg/kg/injection, schedule: Q01DX001 (ip), vehicle: saline with Tween-80) 6 of 6; (dose: 200.0 mg/kg/injection, schedule: Q01DX001 (ip), vehicle: saline with Tween-80) 6 of 6; (dose: 400.0 mg/kg/injection, schedule: Q01DX001 (ip), vehicle: saline with Tween-80) 6 of 6.

Consider `CC(C)(C)c1ccc(N)c(C(O)(C(F)(F)F)C(F)(F)F)c1`, for which the T/C (dose: 60.0 mg/kg/injection, schedule: Q01DX005 (ip), vehicle: saline with Tween-80) is given as 90, 105, 106, 107 % of control; the T/C (dose: 120.0 mg/kg/injection, schedule: Q01DX005 (ip), vehicle: saline with Tween-80) is 87, 98, 109, 122 % of control; the T/C under setting [7] was 100, 112, 113 % of control. In addition, the survivor count under setting [7] was 6 of 6.

Take `Clc1cccc(Cl)c1C(Nc1nncs1)Nc1nncs1`: the T/C (dose: 100.0 mg/kg/injection, schedule: Q04DX002 (ip), vehicle: saline with Tween-80) was 127 and 148 % of control.

With `CN1/C(=C/C2=C([O-])C(=C/C3=[N+](C)c4ccccc4C3(C)C)/C2=O)C(C)(C)c2ccccc21`, the survivor count under setting [6] is reported as 5 of 6.

As for `COC1=C(N)C(=O)c2nc(-c3ccccc3N)ccc2C1=O`, the T/C (dose: 200.0 mg/kg/injection, schedule: Q01DX009 (ip), vehicle: saline) is 128 % of control.

As to `Cn1nc(-c2ccc3c(c2)OCO3)[n+]([O-])c2c(=O)n(C)c(=O)nc1-2`, the survivor count (dose: 25.0 mg/kg/injection, schedule: Q04DX003 (ip), vehicle: Klucel (hydroxypropylcellulose) (HPC)) is recorded as 0 of 6; the survivor count (dose: 50.0 mg/kg/injection, schedule: Q04DX003 (ip), vehicle: Klucel (hydroxypropylcellulose) (HPC)) is listed as 0 of 6; the survivor count (dose: 100.0 mg/kg/injection, schedule: Q04DX003 (ip), vehicle: Klucel (hydroxypropylcellulose) (HPC)) was 0 of 6; the survivor count (dose: 200.0 mg/kg/injection, schedule: Q04DX003 (ip), vehicle: Klucel (hydroxypropylcellulose) (HPC)) is 0 of 6; the survivor count (dose: 400.0 mg/kg/injection, schedule: Q04DX003 (ip), vehicle: Klucel (hydroxypropylcellulose) (HPC)) is listed as 0 of 6.

As to `CC1CCC[P+](c2ccccc2)(c2ccccc2)CC1` (centres undefined), the survivor count was 0 of 6 (dose: 100.0 mg/kg/injection, schedule: Q04DX002 (ip), vehicle: saline); 0 of 6 (dose: 200.0 mg/kg/injection, schedule: Q04DX002 (ip), vehicle: saline); 0 of 6 (dose: 400.0 mg/kg/injection, schedule: Q04DX002 (ip), vehicle: saline).

For the molecule `CN1CCC(O)(c2ccccc2)C(Br)C1` (centres undefined), the T/C (dose: 120.0 mg/kg/injection, schedule: Q01DX005 (ip), vehicle: saline) was 125 % of control. In addition, for the setting “dose: 240.0 mg/kg/injection, schedule: Q01DX005 (ip), vehicle: saline”, the survivor count was 0 of 6, 1 of 6, 3 of 6.
